Laboratory results published in patent US20250263437A1 (Sichuan Gooddoctor Panxi Pharmaceutical Co., Ltd., priority 2021, published 2025).
Where no end group is shown, it is not given here.

Assay: general procedure: Fmoc solid-phase peptide synthesis; 2-chlorotrityl chloride resin (SD=0.75 mmol/g); DIC/HOBt
Conditions: for step yield: purification step; for final purity (method not given): whole synthesis, scale of the general procedure 13.48 g of resin in six synthesis tubes, Acetate

EAEAAGKAE
step yield: 41.1% | final purity (method not given): 98.36%

Gln-Ala-Ser-Leu (QASL; printed: Gln-Ala-Ser-Leu)
step yield: 58.4% | final purity (method not given): 98.41%

Glu-Ala-Glu-Ala (EAEA; printed: Glu-Ala-Glu-Ala)
step yield: 36.6% | final purity (method not given): 100%

QASLEAEAKGKAE
step yield: 14.3% | final purity (method not given): 97.45%

RKDVYEAEAKGKAE
step yield: 39.4% | final purity (method not given): 99.71%

SAQASLEAEAKGKAE
final purity (method not given): 100%

SIQASLEAEAKGKAE
step yield: 17.2% | final purity (method not given): 100%

SLQASLEAEAKGKAE
final purity (method not given): 100%

SMAASLEAEAKGKAE
final purity (method not given): 100%

SMQASL
step yield: 62.9% | final purity (method not given): 100%

SMQASLEADAKGKAE
step yield: 21.1% | final purity (method not given): 99.74%

SMQASLEAEAAGKAE
step yield: 17.5% | final purity (method not given): 100%

SMQASLEAEAKAKAE
step yield: 14.0% | final purity (method not given): 97.54%

SMQASLEAEAKGHAE
step yield: 4.1% | final purity (method not given): 99.74%

SMQASLEAEAKGKAEL
step yield: 5.6% | final purity (method not given): 100%

SMQASLEAEAKGKAN
step yield: 4.4% | final purity (method not given): 98.37%

SMQASLEAEAKGKAQD
step yield: 6.7% | final purity (method not given): 100%

SMQASLEAEAKGKAQE
step yield: 5.2% | final purity (method not given): 98.43%

SMQASLEAESKGKAE
step yield: 8.2% | final purity (method not given): 100%

SMQASLEALAKGKAE
step yield: 14.1% | final purity (method not given): 99.69%

SMQASVEAEAKGKAE
step yield: 11.7% | final purity (method not given): 100%

SMQATLEAEAKGKAE
step yield: 19.7% | final purity (method not given): 100%

TASTLEAEAKGKAE
step yield: 18.9% | final purity (method not given): 99.74%
